# These are yes or no findings as the source states them, for the method shown. Binding seen in cells or lysates may run through a third protein. Binding calls can cover weak binding; strength is not graded here.
# By UniProt entry, the sequences of proteins in these tests, tags left out. Where a name states a change or a piece, a line headed by the entry shows the natural chain unless it says otherwise.
# UniProt O95155: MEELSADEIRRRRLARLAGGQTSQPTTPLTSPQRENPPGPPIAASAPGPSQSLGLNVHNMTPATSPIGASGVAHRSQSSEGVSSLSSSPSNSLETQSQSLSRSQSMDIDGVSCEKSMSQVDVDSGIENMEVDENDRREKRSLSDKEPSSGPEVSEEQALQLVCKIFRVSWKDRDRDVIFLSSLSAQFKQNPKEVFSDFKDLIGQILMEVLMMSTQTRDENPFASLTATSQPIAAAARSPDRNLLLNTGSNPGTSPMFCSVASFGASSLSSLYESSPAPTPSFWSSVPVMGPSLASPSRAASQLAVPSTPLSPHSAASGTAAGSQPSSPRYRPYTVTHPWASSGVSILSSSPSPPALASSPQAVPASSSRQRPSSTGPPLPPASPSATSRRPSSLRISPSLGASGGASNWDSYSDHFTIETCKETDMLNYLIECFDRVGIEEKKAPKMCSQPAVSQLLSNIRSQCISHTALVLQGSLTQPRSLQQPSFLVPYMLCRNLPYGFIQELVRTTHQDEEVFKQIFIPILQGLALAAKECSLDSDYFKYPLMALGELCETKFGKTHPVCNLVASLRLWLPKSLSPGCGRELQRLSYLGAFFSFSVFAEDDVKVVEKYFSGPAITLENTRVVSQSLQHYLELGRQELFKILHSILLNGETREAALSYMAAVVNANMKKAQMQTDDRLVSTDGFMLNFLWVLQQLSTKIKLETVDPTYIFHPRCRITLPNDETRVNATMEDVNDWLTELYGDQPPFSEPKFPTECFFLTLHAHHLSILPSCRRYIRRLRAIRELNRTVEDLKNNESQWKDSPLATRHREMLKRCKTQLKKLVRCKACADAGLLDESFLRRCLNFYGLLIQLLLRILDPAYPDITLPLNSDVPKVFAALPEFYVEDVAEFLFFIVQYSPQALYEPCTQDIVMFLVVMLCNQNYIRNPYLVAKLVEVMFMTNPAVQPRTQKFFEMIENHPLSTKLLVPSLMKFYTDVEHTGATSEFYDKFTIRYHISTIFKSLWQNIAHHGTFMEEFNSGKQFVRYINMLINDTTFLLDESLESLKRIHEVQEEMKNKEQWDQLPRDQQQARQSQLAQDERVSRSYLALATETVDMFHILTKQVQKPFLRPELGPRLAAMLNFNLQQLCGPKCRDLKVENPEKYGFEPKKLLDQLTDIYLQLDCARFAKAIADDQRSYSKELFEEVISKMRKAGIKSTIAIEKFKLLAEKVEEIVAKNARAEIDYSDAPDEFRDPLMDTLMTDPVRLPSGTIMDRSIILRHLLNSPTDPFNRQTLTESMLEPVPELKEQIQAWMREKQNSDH
# UniProt Q00987: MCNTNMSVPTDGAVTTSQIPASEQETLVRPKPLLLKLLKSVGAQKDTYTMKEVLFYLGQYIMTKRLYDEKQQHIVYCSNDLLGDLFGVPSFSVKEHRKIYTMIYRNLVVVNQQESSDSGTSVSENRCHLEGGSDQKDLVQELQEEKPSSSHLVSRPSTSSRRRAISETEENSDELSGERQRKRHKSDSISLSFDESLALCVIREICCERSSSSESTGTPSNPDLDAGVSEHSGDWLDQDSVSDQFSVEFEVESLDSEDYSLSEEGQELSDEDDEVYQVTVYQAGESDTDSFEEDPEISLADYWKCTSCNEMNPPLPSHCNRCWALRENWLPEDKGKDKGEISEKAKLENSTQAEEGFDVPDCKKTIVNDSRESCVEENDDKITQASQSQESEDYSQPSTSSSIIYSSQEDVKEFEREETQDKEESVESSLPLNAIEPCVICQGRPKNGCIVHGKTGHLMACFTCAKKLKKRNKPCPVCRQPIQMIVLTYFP
# B1: Wild-type p53-induced phosphatase 1 (Wip1), endogenous (enzyme, UniProt O15297 1-605)
# chain: MAGLYSLGVSVFSDQGGRKYMEDVTQIVVEPEPTAEEKPSPRRSLSQPLPPRPSPAALPGGEVSGKGPAVAAREARDPLPDAGASPAPSRCCRRRSSVAFFAVCDGHGGREAAQFAREHLWGFIKKQKGFTSSEPAKVCAAIRKGFLACHLAMWKKLAEWPKTMTGLPSTSGTTASVVIIRGMKMYVAHVGDSGVVLGIQDDPKDDFVRAVEVTQDHKPELPKERERIEGLGGSVMNKSGVNRVVWKRPRLTHNGPVRRSTVIDQIPFLAVARALGDLWSYDFFSGEFVVSPEPDTSVHTLDPQKHKYIILGSDGLWNMIPPQDAISMCQDQEEKKYLMGEHGQSCAKMLVNRALGRWRQRMLRADNTSAIVICISPEVDNQGNFTNEDELYLNLTDSPSYNSQETCVMTPSPCSTPPVKSLEEDPWPRVNSKDHIPALVRSNAFSENFLEVSAEIARENVQGVVIPSKDPEPLEENCAKALTLRIHDSLNNSLPIGLVPTNSTNTVMDQKNLKMSTPGQMKAQEIERTPPTNFKRTLEESNSGPLMKKHRRNGLSRSSGAQPASLPTTSQRKNSVKLTMRRRLRGQKKIGNPLLHQHRKTVCVC
# Key:
# [1] = biological target: Flag-tagged C500 construct of UBE4B (first 500 N-terminal amino acids) (UniProt O95155); assay: co-IP; HCT116 cells transfected with HDM2, Flag-UBE4B, Flag-C500, Flag-C800; 10 J/m2 UV, 3 h; immunoprecipitated with anti-Flag (M5); Wip1 and HDM2 detected by immunoblotting
# [2] = biological target: Flag-tagged C800 construct of UBE4B (first 800 N-terminal amino acids) (UniProt O95155); assay: as above
Molecule,binding [1],binding [2]
"HDM2, expressed from pCMV-BAM-HDM2 (from UniProt Q00987 1-491)",binds,binds
B1,no binding,binds

# Reference: paper PMC11965332
